Library screen at single concentrations

Chains of the proteins cited; added tags and fusions are not shown.
UniProt P9WPC5, whole entry: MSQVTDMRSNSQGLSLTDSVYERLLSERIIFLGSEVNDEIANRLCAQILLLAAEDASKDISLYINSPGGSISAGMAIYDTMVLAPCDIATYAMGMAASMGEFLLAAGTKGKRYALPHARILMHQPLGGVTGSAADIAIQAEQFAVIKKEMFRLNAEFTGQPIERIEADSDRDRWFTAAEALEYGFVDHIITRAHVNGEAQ
UniProt P9WPC3, whole entry partner: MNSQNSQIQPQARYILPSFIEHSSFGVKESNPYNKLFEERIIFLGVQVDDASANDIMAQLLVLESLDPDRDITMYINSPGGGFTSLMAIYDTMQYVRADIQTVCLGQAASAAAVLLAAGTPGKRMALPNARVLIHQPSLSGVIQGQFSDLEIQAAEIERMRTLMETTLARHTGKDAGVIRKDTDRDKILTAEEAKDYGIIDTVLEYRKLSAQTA

Data taken from ChEMBL document CHEMBL3988442, “University of Dundee, Small-Polar-MMV Screening Library” (2021).

Toxoplasma: 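Assay of Toxoplasma gondii numbers, read through their beta-galactosidase reporter with a colour substrate. Compounds at 10 µM. The record gives no direction; the compounds picked for IC50 retests had high values, so higher reads as fewer parasites. Size under these conditions: about 67,000 compounds, about 260 of them at 50% or above in at least one test.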
ClpP1P2: 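Protease assay of ClpP1P2, read by the AMC dye that it sets free. Target: ClpP1P2, Mycobacterium tuberculosis (UniProt P9WPC5 and UniProt P9WPC3). Compounds at 50 µM. Higher reads as stronger inhibition, judged from the few compounds that gave an IC50. Most other retested compounds had strongly negative values. Of about 69,000 compounds tested this way, about 10 (0.015%) reached 50% or more in at least one test.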
Leishmania in macrophages: 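Cell assay of Leishmania donovani living inside macrophages; the read-out is not stated. Tested at 30 µM. Direction is inferred from retests: higher values go with stronger inhibition. About 69,000 compounds were tested under these conditions; 1.5% (about 1,000) showed 50% or more at least once.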
T. brucei: 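Whole-parasite assay of Trypanosoma brucei over 72 hours; the read-out is not stated. Tested at 30 µM. Direction is inferred from retests: higher values go with stronger inhibition. Values scatter widely below zero; nearly all retest evidence comes from the higher of the two concentrations used. About 64,000 compounds were tested under these conditions; 1.5% (about 940) showed 50% or more at least once.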

Values are the deposited “Percent Effect”, in %. The record does not define 0% and 100%; most values in the screen are far below 50% and negative numbers occur (in some assays of this library far below -100). Compounds were drawn at random from those tested, without regard to their results. Two or more numbers in one place are separate tests of the same structure; such repeats can differ widely.

{"structure": "CCCn1c(C)c(CC(=O)NCC(C)O)c2c1CC(C)(C)CC2=O", "stereo": "configuration not stated", "Toxoplasma": 16.97, "ClpP1P2": -12.63, "Leishmania in macrophages": -2.796, "T. brucei": -11.54}
{"structure": "CCOc1ccc(C(=O)NCCCNc2ncccn2)cc1", "ClpP1P2": 2.666, "Leishmania in macrophages": -24.45, "T. brucei": -19.74}
{"structure": "CC(C)c1nnc(CN(C)C(c2ccccc2)c2ccc(F)cc2)o1", "stereo": "configuration not stated", "Toxoplasma": -9.744, "ClpP1P2": -2.323, "Leishmania in macrophages": 23.89, "T. brucei": -11.52}
{"structure": "Cl.O=C(c1ccccc1Cl)N1CCN(CCc2ccccn2)CC1", "Toxoplasma": 4.035, "Leishmania in macrophages": "7.307 and 1.294", "T. brucei": -11.68}
{"structure": "CC(C)n1nc2c(cc1=O)CN(c1nc3ccccc3s1)CC2", "Toxoplasma": -2.367, "ClpP1P2": -7.419, "Leishmania in macrophages": 3.009, "T. brucei": -1.168}
{"structure": "C=C(C)CN1CCC(n2cc(C3CCCC3)nn2)CC1", "Toxoplasma": 5.35, "ClpP1P2": -7.982, "Leishmania in macrophages": 1.896, "T. brucei": -24.19}
{"structure": "CCCc1cc(NC2CCc3nc(C(C)C)nn3C2)n2ncnc2n1", "stereo": "configuration not stated", "Toxoplasma": 7.773, "ClpP1P2": -3.123, "Leishmania in macrophages": -19.49, "T. brucei": -18.49}
{"structure": "CC(CN1CCCC1)C(=O)NCC1CCN(c2cnn(C)c(=O)c2)CC1", "stereo": "configuration not stated", "Toxoplasma": 11.87, "ClpP1P2": -6.896, "Leishmania in macrophages": 29.85, "T. brucei": -40.27}
{"structure": "Cc1cnc(CN2CCCC2c2noc(C3CC3)n2)cn1", "stereo": "configuration not stated", "Toxoplasma": 4.404, "ClpP1P2": -3.551, "Leishmania in macrophages": 12.37, "T. brucei": -4.484}
{"structure": "CCOc1ncnc2c1CCN(Cc1csc(C)n1)CC2", "ClpP1P2": -9.604}
{"structure": "CS(=O)(=O)CC1(CNc2ccc(C#N)c(C(F)(F)F)c2)CC1", "Toxoplasma": -13.4, "ClpP1P2": -7.691, "Leishmania in macrophages": 26.76, "T. brucei": -1.282}
{"structure": "CN(C)[C@@H]1CN(Cc2ccccc2O)C[C@H]1c1cn(C)c2ccccc12", "ClpP1P2": -53.17}
{"structure": "Br.O=C(CN(C1=NCCCC1)c1ccccc1)c1ccccc1", "Toxoplasma": 0.7541, "Leishmania in macrophages": -5.499, "T. brucei": -30.63}
{"structure": "CN(C)C1(CNC(=O)C2CCCN2Cc2ccc(F)cc2)CCOCC1", "stereo": "configuration not stated", "Toxoplasma": 3.048, "ClpP1P2": 5.863, "Leishmania in macrophages": 8.328, "T. brucei": 12.51}
{"structure": "CCCC(N)CNS(=O)(=O)Cc1cccc(C#N)c1", "stereo": "configuration not stated", "ClpP1P2": -6.296}
{"structure": "c1cnc(N2CCC3(CCN(Cc4ccncc4)CC3)CC2)nc1", "ClpP1P2": 6.444}
{"structure": "O=S(=O)(Cc1ccccc1)CC(O)Cn1cccn1", "stereo": "configuration not stated", "Toxoplasma": -18.73, "ClpP1P2": -1.286, "Leishmania in macrophages": 5.456, "T. brucei": -23.39}
{"structure": "CCCc1cc(=O)[nH]c(-c2ccccc2CN(C)CCC(C)C)n1", "Toxoplasma": -4.083, "ClpP1P2": -3.597, "Leishmania in macrophages": 23.5, "T. brucei": 12.93}

Once more, the final 2:

- O=S(=O)(Cc1ccccc1)CC(O)Cn1cccn1 (configuration not stated) : Toxoplasma: -18.73%; ClpP1P2: -1.286%; Leishmania in macrophages: 5.456%; T. brucei: -23.39%
- CCCc1cc(=O)[nH]c(-c2ccccc2CN(C)CCC(C)C)n1 : Toxoplasma: -4.083%; ClpP1P2: -3.597%; Leishmania in macrophages: 23.5%; T. brucei: 12.93%